According to paper PMC12554172, “Systematic analysis of the RGS2 degron reveals characteristics of substrate recognition by the F-box protein FBXO44” (The Journal of Biological Chemistry, 2025):
No constants are given. Whether binding was seen depends on the method and setting. Some binding calls cover weakened binding; strength is not graded here. Where a sequence is shown, tags or fusion partners need not be part of it.

Chains of the proteins cited; added tags and fusions are not shown. Lines headed by an entry give the natural chain unless they say otherwise; changes in a name come on top.
UniProt P41220: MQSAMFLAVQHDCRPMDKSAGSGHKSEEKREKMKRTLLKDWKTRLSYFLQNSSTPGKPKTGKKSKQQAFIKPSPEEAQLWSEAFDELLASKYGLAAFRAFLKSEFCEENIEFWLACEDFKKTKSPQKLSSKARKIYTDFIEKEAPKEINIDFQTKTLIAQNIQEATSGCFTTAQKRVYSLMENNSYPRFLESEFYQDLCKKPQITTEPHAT

Columns and labels:
Experiment in all cases: peptide or protein array; custom PEPperPRINT peptide microarray (each position of RGS2^5–16 substituted by every other amino acid; C-terminal truncations); 2 μg/ml purified FLAG-FBXO44^FBA in staining buffer (PBS, 0.005% Tween, pH 7.4, 10% Rockland blocking buffer) overnight at 4 °C; anti-FLAG DyLight800; signal normalised to the original residue; both purified
[1] = biological target: T1, RGS2^5–16 peptide, Met^5 to Asp (UniProt P41220)
T1 sequence (peptide): DFLAVQHDCRPM

[2] = biological target: T2, RGS2^5–16 peptide, Asp^12 to Phe (UniProt P41220)
T2 sequence (peptide): MFLAVQHFCRPM

RGS2^5–16 peptide H11R = biological target: T3, RGS2^5–16 peptide H11R (UniProt P41220)
T3 sequence (peptide): MFLAVQRDCRPM

[3] = biological target: T4, RGS2^5–16 peptide, Asp^12 to Gln (UniProt P41220)
T4 sequence (peptide): MFLAVQHQCRPM

[4] = biological target: T5, RGS2^5–16 peptide, Asp^12 to Asn (UniProt P41220)
T5 sequence (peptide): MFLAVQHNCRPM

[5] = biological target: T6, RGS2^5–16 peptide, Asp^12 to Glu (UniProt P41220)
T6 sequence (peptide): MFLAVQHECRPM

[6] = biological target: T7, RGS2^5–16 peptide, Asp^12 to Leu (UniProt P41220)
T7 sequence (peptide): MFLAVQHLCRPM

[7] = biological target: T8, RGS2^5–16 peptide, Met^16 to Arg (UniProt P41220)
T8 sequence (peptide): MFLAVQHDCRPR

[8] = biological target: T9, RGS2^5–16 peptide, Asp^12 to Cys (UniProt P41220)
T9 sequence (peptide): MFLAVQHCCRPM

[9] = biological target: T10, RGS2^5–16 peptide, Asp^12 to Lys (UniProt P41220)
T10 sequence (peptide): MFLAVQHKCRPM

[10] = biological target: T11, RGS2^5–16 peptide, Asp^12 to Gly (UniProt P41220)
T11 sequence (peptide): MFLAVQHGCRPM

[11] = biological target: T12, RGS2^5–16 peptide, Ala^8 to Asp (UniProt P41220)
T12 sequence (peptide): MFLDVQHDCRPM

[12] = biological target: T13, RGS2^5–16 peptide, Val^9 to Asp (UniProt P41220)
T13 sequence (peptide): MFLADQHDCRPM

- binding [1]: binds
- binding [2]: binds
- binding (RGS2^5–16 peptide H11R): binds
- binding [3]: binds
- binding [4]: binds
- binding [5]: binds
- binding [6]: binds
- binding [7]: binds
- binding [8]: binds
- binding [9]: binds
- binding [10]: binds
- binding [11]: binds
- binding [12]: binds
B1: FLAG-tagged FBXO44 FBA domain (FBXO44^FBA) (domain or fragment, UniProt Q9H4M3-1 71-252)
chain: FYFLRSLHRNLLHNPCAEEGFEFWSLDVNGGDEWKVEDLSRDQRKEFPNDQVKKYFVTSYYTCLKSQVVDLKAEGYWEELMDTTRPDIEVKDWFAARPDCGSKYQLCVQLLSSAHAPLGTFQPDPATIQQKSDAKWREVSHTFSNYPPGVRYIWFQHGGVDTHYWAGWYGPRVTNSSITIGP
